In article PMC3390362:
These are yes or no findings as the source states them, for the method shown.

Target: HIV-1 Nef core domain, residues 41-206 (Nef NL4-3) (HIV-1 (NL4-3)) (UniProt P03406)
Assay: condition: typically 100 µl of a 150 µg/ml protein solution loaded; SEC; analytical gel filtration, Superdex S75 (10/30), 10 mM Tris/HCl pH 9.0, 100 mM NaCl, 4°C, typically 100 µl of a 150 µg/ml protein solution; Nef core alone; both purified

Substance: HIV-1 Nef core domain, residues 41-206 (Nef NL4-3) (from UniProt P03406 41-206) (domain or fragment)
- binding: no binding
